Test results: article PMC9570898, “Comparing Variants of the Cell-Penetrating Peptide sC18 to Design Peptide-Drug Conjugates” (Molecules, 2022)
No end group written: not given here.

Experiment: CD spectroscopy, R-value (helicity)
Type: physicochemical
Details: potassium phosphate buffer with 50 % TFE, 20 °C

GLRHRLRHFRNHIHH [sC18^ΔE1]
R-value [θ]220 nm/[θ]207 nm (pH 6.8, 10 µM peptide): 0.84
R-value [θ]220 nm/[θ]207 nm (pH 7.4, 10 µM peptide): 0.82

HLRHHLRHFRHHIKH [sC18^ΔE3, variant of sC18^ΔE having a complete part of the helix composed of histidines]
R-value [θ]220 nm/[θ]207 nm (pH 6.8, 10 µM peptide): 0.87
R-value [θ]220 nm/[θ]207 nm (pH 7.4, 10 µM peptide): 0.86

GLHKRLHKFHNKIHK [sC18^ΔE4, variant of sC18^ΔE having a complete part of the helix composed of histidines]
R-value [θ]220 nm/[θ]207 nm (pH 6.8, 10 µM peptide): 0.85
R-value [θ]220 nm/[θ]207 nm (pH 7.4, 10 µM peptide): 0.81

GLRKRLRKFRNKIKEK-NH2 [sC18]
R-value [θ]220 nm/[θ]207 nm (pH 6.8, 10 µM peptide): 0.81
R-value [θ]220 nm/[θ]207 nm (pH 7.4, 10 µM peptide): 0.81

GLHKHLHKFHNKIKK [sC18^ΔE2]
R-value [θ]220 nm/[θ]207 nm (pH 6.8, 10 µM peptide): 0.88
R-value [θ]220 nm/[θ]207 nm (pH 7.4, 10 µM peptide): 0.76
